The values below come from PMC8492728.

Chains of the proteins cited; added tags and fusions are not shown.
UniProt Q04206: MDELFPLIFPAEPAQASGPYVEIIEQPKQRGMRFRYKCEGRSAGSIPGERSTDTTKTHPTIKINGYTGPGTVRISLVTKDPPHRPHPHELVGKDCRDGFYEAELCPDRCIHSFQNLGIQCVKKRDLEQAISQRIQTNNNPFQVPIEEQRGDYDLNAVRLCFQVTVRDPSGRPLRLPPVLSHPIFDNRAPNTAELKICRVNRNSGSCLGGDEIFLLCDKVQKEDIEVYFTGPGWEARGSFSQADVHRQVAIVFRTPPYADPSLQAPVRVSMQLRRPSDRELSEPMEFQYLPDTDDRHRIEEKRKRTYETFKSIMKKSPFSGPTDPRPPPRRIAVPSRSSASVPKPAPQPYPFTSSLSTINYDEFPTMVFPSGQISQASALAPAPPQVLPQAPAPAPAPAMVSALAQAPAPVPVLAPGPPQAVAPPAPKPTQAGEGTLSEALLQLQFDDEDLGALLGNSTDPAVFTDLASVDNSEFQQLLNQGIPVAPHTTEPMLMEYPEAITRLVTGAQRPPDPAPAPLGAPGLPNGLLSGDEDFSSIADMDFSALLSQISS

This assay addresses NF-κB/p65 (human (endogenous in NSCLC cells; line not named for Fig. 4k, A549 in the other panels)) (UniProt Q04206). In words: co-IP; cells with or without TGF-β; lysates incubated overnight at 4 °C with anti-p65 antibody or IgG, then protein A/G-agarose; immunoblot. In general terms: In western blotting, separated proteins are transferred to a membrane and probed.

No constants are given. Whether binding was seen depends on the method and setting. Binding seen in cells or lysates may run through a third protein. Some results given as binding are weak or reduced against the parent protein; the word gives no strength.

B1: Myocardin-related transcription factor-A (protein, UniProt Q969V6 1-931)
chain: MPPLKSPAAFHEQRRSLERARTEDYLKRKIRSRPERSELVRMHILEETSAEPSLQAKQLKLKRARLADDLNEKIAQRPGPMELVEKNILPVESSLKEAIIVGQVNYPKVADSSSFDEDSSDALSPEQPASHESQGSVPSPLEARVSEPLLSATSASPTQVVSQLPMGRDSREMLFLAEQPPLPPPPLLPPSLTNGTTIPTAKSTPTLIKQSQPKSASEKSQRSKKAKELKPKVKKLKYHQYIPPDQKQDRGAPPMDSSYAKILQQQQLFLQLQILNQQQQQHHNYQAILPAPPKSAGEALGSSGTPPVRSLSTTNSSSSSGAPGPCGLARQNSTSLTGKPGALPANLDDMKVAELKQELKLRSLPVSGTKTELIERLRAYQDQISPVPGAPKAPAATSILHKAGEVVVAFPAARLSTGPALVAAGLAPAEVVVATVASSGVVKFGSTGSTPPVSPTPSERSLLSTGDENSTPGDTFGEMVTSPLTQLTLQASPLQILVKEEGPRAGSCCLSPGGRAELEGRDKDQMLQEKDKQIEALTRMLRQKQQLVERLKLQLEQEKRAQQPAPAPAPLGTPVKQENSFSSCQLSQQPLGPAHPFNPSLAAPATNHIDPCAVAPGPPSVVVKQEALQPEPEPVPAPQLLLGPQGPSLIKGVAPPTLITDSTGTHLVLTVTNKNADSPGLSSGSPQQPSSQPGSPAPAPSAQMDLEHPLQPLFGTPTSLLKKEPPGYEEAMSQQPKQQENGSSSQQMDDLFDILIQSGEISADFKEPPSLPGKEKPSPKTVCGSPLAAQPSPSAELPQAAPPPPGSPSLPGRLEDFLESSTGLPLLTSGHDGPEPLSLIDDLHSQMLSSTAILDHPPSPMDTSELHFVPEPSSTMGLDLADGHLDSMDWLELSSGGPVLSLAPLSTTAPSLFSTDFLDGHDLQLHWDSCL
As for B1, the binding result was “binds”.
